For at least one entry, the source does not settle the construct or the ends of the probe.

The test system of data set [1] is RUNX1 RHD + CBFβ-SMMHC-ΔHABD. The experiment in a line: BLI. As to conditions: with CBFβ-SMMHC-ΔHABD, affinity significantly enhanced, Kd only in figure; BLI: 20 mM Tris-HCl pH 8.0, 150 mM KCl, 1 mM EDTA, 1 mM DTT, 0.02% Tween-20, with 800 nM CBFβ or 400 nM CBFβ-SMMHC/mutant, preincubated 37 °C 30 min; recombinant protein; protein details: His (pET28a),His (pET30a); label: biotin.

For a further data set, the system named is RUNX1 RHD + CBFβ-SMMHC. Put plainly: BLI. The conditions noted are these: 400 nM CBFβ-SMMHC, affinity significantly enhanced, Kd only in figure; BLI: 20 mM Tris-HCl pH 8.0, 150 mM KCl, 1 mM EDTA, 1 mM DTT, 0.02% Tween-20, with 800 nM CBFβ or 400 nM CBFβ-SMMHC/mutant, preincubated 37 °C 30 min; recombinant protein; protein details: His (pET28a),His (pET30a); label: biotin.

As for “AGTTGCGGTTG (double strand) [RUNX1 target DNA oligonucleotide (BLI)]”, the binding result (in data set [1]; in the data set on RUNX1 RHD + CBFβ-SMMHC) was “binds” each time.

These data come from publication PMC12483565, “CBFβ-SMMHC–driven leukemogenesis requires enhanced RUNX1-DNA binding affinity in mice”.
